Results on 4 substances are retold here after publication PMC7145602.

One experiment has as its target T1, Flag-Regnase-1 (mouse) (UniProt Q5D1E7).
T1 sequence: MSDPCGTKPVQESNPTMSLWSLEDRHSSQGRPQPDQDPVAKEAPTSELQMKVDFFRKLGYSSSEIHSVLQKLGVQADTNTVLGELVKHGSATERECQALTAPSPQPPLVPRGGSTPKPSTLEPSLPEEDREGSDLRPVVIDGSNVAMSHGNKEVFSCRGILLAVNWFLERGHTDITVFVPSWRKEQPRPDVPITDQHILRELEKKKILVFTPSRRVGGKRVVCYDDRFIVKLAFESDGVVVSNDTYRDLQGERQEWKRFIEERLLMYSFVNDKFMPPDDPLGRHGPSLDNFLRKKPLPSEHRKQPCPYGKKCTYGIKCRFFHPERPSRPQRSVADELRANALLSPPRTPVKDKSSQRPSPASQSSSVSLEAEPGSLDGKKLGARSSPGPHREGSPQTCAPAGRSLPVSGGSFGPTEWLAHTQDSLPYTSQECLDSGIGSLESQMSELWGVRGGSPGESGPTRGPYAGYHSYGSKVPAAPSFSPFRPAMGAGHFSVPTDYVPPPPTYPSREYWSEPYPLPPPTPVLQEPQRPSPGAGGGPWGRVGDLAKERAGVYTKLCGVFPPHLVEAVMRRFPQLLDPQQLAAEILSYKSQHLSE
Nature of the experiment: co-IP; anti-Flag antibody on protein G magnetic beads, lysates of transfected HeLa cells (0.1% NP-40, 150 mM NaCl, 10 mM Tris-HCl pH 8.0), 3 h at 4°C; Flag-Regnase-1 precipitated, UPF1 constructs blotted; λ protein phosphatase treatment of lysates and SMG1 knockdown are said to reduce or inhibit the association.

Experiment [1] has as its target T2, Flag-Regnase-1 K257A/R258A (KRAA) mutant (mouse) (UniProt Q5D1E7).
T2 sequence: T1 sequence with K257A, R258A
The experiment is described as above.

The target of another experiment is T3, GST-Regnase-1 (mouse) (UniProt Q5D1E7).
T3 sequence: T1 sequence
Put plainly: pull-down; GST-Regnase-1 incubated with HA-UPF1 in 0.1% NP-40, 10 mM Tris-HCl pH 8.0, 150 mM NaCl, 5 mM Mg(OAc)2, 5 mM ZnCl2, 1 mM DTT, 10% glycerol, 1 h at r.t.; Glutathione Sepharose 1 h at 4°C; western blot; both purified. A general note: In western blotting, separated proteins are transferred to a membrane and probed.

Experiment [2] deals with T4, GFP-UPF1-(6–429)-T28E (human) (UniProt Q92900).
T4 sequence: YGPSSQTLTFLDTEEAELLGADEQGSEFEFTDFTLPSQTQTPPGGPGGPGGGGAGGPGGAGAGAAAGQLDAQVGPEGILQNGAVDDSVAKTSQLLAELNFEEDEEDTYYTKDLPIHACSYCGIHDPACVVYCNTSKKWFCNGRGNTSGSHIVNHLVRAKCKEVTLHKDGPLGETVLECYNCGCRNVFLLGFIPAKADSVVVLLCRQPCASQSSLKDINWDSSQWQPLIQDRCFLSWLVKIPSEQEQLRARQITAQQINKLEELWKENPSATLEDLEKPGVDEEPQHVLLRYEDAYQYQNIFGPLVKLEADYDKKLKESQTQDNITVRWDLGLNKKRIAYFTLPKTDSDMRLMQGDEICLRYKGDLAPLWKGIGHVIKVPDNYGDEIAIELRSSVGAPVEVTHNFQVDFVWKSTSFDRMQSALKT
Nature of the experiment: co-IP; anti-GFP antibody on protein G magnetic beads, lysates of transfected HeLa cells (0.1% NP-40, 150 mM NaCl, 10 mM Tris-HCl pH 8.0), 3 h at 4°C; GFP-UPF1 fragments precipitated.

Experiment [3] deals with T5, SBP-GFP-UPF1-(610–914) (pEFh-SBP-GFP-hUPF1-(610–914)) (human) (UniProt Q92900).
T5 sequence: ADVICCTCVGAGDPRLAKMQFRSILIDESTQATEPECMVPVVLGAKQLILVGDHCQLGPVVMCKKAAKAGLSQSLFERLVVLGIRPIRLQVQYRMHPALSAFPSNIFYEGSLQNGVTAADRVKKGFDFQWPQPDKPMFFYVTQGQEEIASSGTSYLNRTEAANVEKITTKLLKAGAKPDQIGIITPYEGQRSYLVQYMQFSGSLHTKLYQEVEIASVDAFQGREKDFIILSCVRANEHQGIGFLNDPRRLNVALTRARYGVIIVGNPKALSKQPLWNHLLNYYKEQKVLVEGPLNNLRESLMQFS
The description is as above.

Positions count from the first letter of the chain named. No constants are given. Whether binding was seen depends on the method and setting. For part of these data: A result given as binding can be weak or reduced; the word gives no strength. Tags and fused reporters may be left off the sequences shown. For part of these data: In cells and extracts the contact can be indirect.

Turning to “HA-UPF1-T28A (pSR-HA-hUPF1-T28A) (from UniProt Q92900-2)”, in the experiment with Flag-Regnase-1 (mouse), the binding entry is “no binding”.

As for “HA-UPF1-T28E (pSR-HA-hUPF1-T28E) (from UniProt Q92900-2)”, the results for the binding entry (with Flag-Regnase-1 (mouse); in experiment [1]; with GST-Regnase-1 (mouse)) were “binds”, “no binding” and “binds”, respectively. “Regnase-1-mCherry deletion mutant with the RNase domain (130–300) (from UniProt Q5D1E7) (domain or fragment)”: in experiment [2], the binding result was “binds”. As to “Regnase-1-mCherry deletion mutant with the structurally disordered region (90–130) (from UniProt Q5D1E7) (domain or fragment)”, the binding entry in experiment [3] is “binds”.
